Literature values, collected in patent US6387945B2, “Lipoic acid analogs” (The Regents of the University of California, priority 2000, dated 2002).
At least one structure is not confirmed: it was looked up by name or label, or the drawing left a doubt.

Conditions: cited from earlier work

SMILES: O=C(O)CCCC[C@@H](S)CCS (racemic) [DHLA, dihydrolipoate]
- oxidation potential: −0.29 V
